PubChem BioAssay AID330 (DTP/NCI, 2004)
The list does not hold the whole screen: it is rich in T/C values a quarter to a half above the control, in often repeated tests (any T/C) and in doses without a T/C. Other doses and runs of a compound stand elsewhere. T/C: endpoint of the treated group in % of that of the vehicle group. Some entries give survivors of the animals treated and no T/C: the source holds a T/C of zero for them, seemingly a mark for toxic or unscored doses. Some doses without a T/C left all or most animals alive at the check, yet need not have been tolerated: the source hardly ever lists a survival T/C far under the control, and the zero likely stands for such cases as well. Counts of survivors are from the toxicity check (mostly the fifth day) where no day follows; animals may have died later. Schedules are NCI's codes, taken here to give the interval after Q, in days (D) or hours (H), and the number of doses after X. Where survival is the endpoint, this PubChem deposit counts one and a half times the control or more as active, and values a quarter to a half above the control carry no call in these data; other NCI protocols may use other cut-offs. Marks such as (2×) count equal records among those shown. Some entries were tested several times; the results are listed from low to high.

Test system: P388 leukemia ip, CD2F1 mice, survival T/C
Assay: NCI In Vivo Anticancer Drug Screen. Data for tumor model P388 Leukemia (intraperitoneal) in CD2F1 (CDF1) mice
Conditions: T/C endpoint: median survival time, higher T/C = longer survival
[1] = dose: 50.0 mg/kg/injection, schedule: Q01DX005 (ip), vehicle: Klucel (hydroxypropylcellulose) (HPC)
[2] = dose: 100.0 mg/kg/injection, schedule: Q01DX005 (ip), vehicle: Klucel (hydroxypropylcellulose) (HPC)
[3] = dose: 200.0 mg/kg/injection, schedule: Q01DX005 (ip), vehicle: Klucel (hydroxypropylcellulose) (HPC)
[4] = dose: 100.0 mg/kg/injection, schedule: Q01DX009 (ip), vehicle: saline with Tween-80
[5] = dose: 200.0 mg/kg/injection, schedule: Q01DX009 (ip), vehicle: saline with Tween-80
[6] = dose: 50.0 mg/kg/injection, schedule: Q01DX005 (ip), vehicle: saline with Tween-80
[7] = dose: 100.0 mg/kg/injection, schedule: Q01DX005 (ip), vehicle: saline with Tween-80
[8] = dose: 200.0 mg/kg/injection, schedule: Q01DX005 (ip), vehicle: saline with Tween-80

O=C(Nc1ccc(NC2=NCCN2)cc1)c1cc(Cl)cc(C(=O)Nc2ccc(NC3=NCCN3)cc2)c1
T/C [1]: 125 and 128 % of control | survivor count [2]: 0 of 6 | survivor count [3]: 0 of 6

CN1CCC2(CC1)COCc1ccccc12
survivor count [4]: 4 of 6

O=C1CCC(N2C(=O)c3ccccc3C2=O)C(=O)N1 (stereo not given)
survivor count [5]: 6 of 6

CCCCc1n(O)c(-c2ccccc2)c(C)[n+]1[O-]
survivor count [4]: 6 of 6 | survivor count [5]: 4 of 6

O=C(CBr)N(O)c1ccccc1OCc1ccccc1
survivor count (dose: 100.0 mg/kg/injection, schedule: Q01DX001 (ip), vehicle: saline): 2 of 6 | survivor count (dose: 200.0 mg/kg/injection, schedule: Q01DX001 (ip), vehicle: saline): 0 of 6 | survivor count (dose: 400.0 mg/kg/injection, schedule: Q01DX001 (ip), vehicle: saline): 0 of 6

S=C(N/N=C/c1c[nH]c2ccccc12)NC12CC3CC(CC(C3)C1)C2
survivor count (dose: 240.0 mg/kg/injection, schedule: Q01DX005 (ip), vehicle: saline with Tween-80): 6 of 6

CN(C)c1ccc(C(N)=O)cn1
T/C (dose: 3.13 mg/kg/injection, schedule: Q01DX009 (ip), vehicle: saline with Tween-80): 131 % of control | survivor count (dose: 100.0 mg/kg/injection, schedule: Q04DX003 (ip), vehicle: saline with Tween-80): 5 of 6 | survivor count (dose: 200.0 mg/kg/injection, schedule: Q04DX003 (ip), vehicle: saline with Tween-80): 4 of 6 | survivor count (dose: 400.0 mg/kg/injection, schedule: Q04DX003 (ip), vehicle: saline with Tween-80): 3 of 6

CC(=O)N(C)O
T/C [5]: 127 % of control (2×) | T/C (dose: 400.0 mg/kg/injection, schedule: Q01DX005 (ip), vehicle: saline with Tween-80): 142 % of control

CCN(CC)Cc1c(C)[nH]c2cc(Cl)ccc2c1=O
survivor count (dose: 200.0 mg/kg/injection, schedule: Q01DX001 (ip), vehicle: saline with Tween-80): 3 of 6 | survivor count (dose: 400.0 mg/kg/injection, schedule: Q01DX001 (ip), vehicle: saline with Tween-80): 0 of 6

CCCCOc1ccc2nc(C)cc(N=[N+]=[N-])c2c1
survivor count (dose: 120.0 mg/kg/injection, schedule: Q01DX005 (ip), vehicle: saline with Tween-80): 6 of 6

CSCCC(N)C(=O)O (stereo not given)
T/C (dose: 150.0 mg/kg/injection, schedule: Q01DX009 (ip), vehicle: Klucel (hydroxypropylcellulose) (HPC)): 125 % of control | T/C [5]: 126 % of control | T/C (dose: 400.0 mg/kg/injection, schedule: Q01DX009 (ip), vehicle: saline with Tween-80): 137 % of control

CCn1c(=O)c2[nH]c(Cl)nc2n(CC)c1=O
survivor count (dose: 200.0 mg/kg/injection, schedule: Q04DX003 (ip), vehicle: water): 3 of 6

Cc1cc(=O)c2ccc3c(ccc4c(=O)cc(C)[nH]c43)c2[nH]1
survivor count [6]: 3 of 6 | survivor count [7]: 1 of 6 | survivor count [8]: 1 of 6

CC(=O)CC1CCCC(C#N)N1 (stereo not given)
survivor count (dose: 100.0 mg/kg/injection, schedule: Q01DX005 (ip), vehicle: saline): 0 of 5 | survivor count (dose: 200.0 mg/kg/injection, schedule: Q01DX005 (ip), vehicle: saline): 0 of 5

CN(C)c1ncnc2nc(Cl)[nH]c12
survivor count [1]: 3 of 5 | survivor count [2]: 1 of 5 | survivor count [3]: 0 of 5

FC(F)(F)c1nc(Cl)nc(Cl)c1Cl
survivor count [6]: 0 of 6 | survivor count [7]: 0 of 6 | survivor count [8]: 0 of 6
